According to patent US6989435B2, “Compounds and methods to inhibit or augment an inflammatory response” (Cambridge University Technical Services Ltd., priority 1997, dated 2006):
At least one peptide structure holds a part that was inferred or is arguable (an end, a ring closure or a residue). Positions of bridges follow the written chain, without caps; N, C: chain ends. Non-standard residues stand in square brackets, D forms with d. Residues, ends and D or L forms follow the SMILES beside them. No end group written: not given here. ξ: configuration not given here. ξI = CCC(C)C(N)C(=O)O

Assays:
[1] = biological target: T1, Duffy Antigen Receptor for Chemokines (DARC) (Homo sapiens, UniProt Q16570); assay: DARC binding: competition with 125I-labeled MCP-1 on red blood cells
T1 sequence (Q16570 1-336): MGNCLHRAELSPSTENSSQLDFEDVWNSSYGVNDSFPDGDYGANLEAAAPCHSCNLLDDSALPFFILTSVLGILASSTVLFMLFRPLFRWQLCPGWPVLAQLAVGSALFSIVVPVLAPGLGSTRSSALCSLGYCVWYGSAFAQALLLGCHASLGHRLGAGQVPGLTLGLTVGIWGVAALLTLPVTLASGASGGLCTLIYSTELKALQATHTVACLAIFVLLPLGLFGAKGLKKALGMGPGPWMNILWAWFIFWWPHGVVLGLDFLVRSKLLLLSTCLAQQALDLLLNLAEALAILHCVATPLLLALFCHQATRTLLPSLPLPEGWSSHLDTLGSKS

[2] = system: chemokine-induced THP-1 migration (MCP-1, MIP1α, IL8, SDF1α); assay: Trans-well THP-1 migration assay, across the chemokines tested; type: cell-based, human
Experimental: To determine whether an agent inhibits a chemokine-induced activity, such as macrophage recruitment, varying amounts of the agent are mixed with cells in the presence of a known chemoattractant. […] Chemokine (such as MCP-1, MIP1α, IL8 or SDF-1α), at a concentration known to cause significant migration of THP-1 cells in the trans-well migration assay, is placed in the lower compartment (FIG. 1). […] After incubation, the cells are gently removed from the top of the filter with a pipette, 20 μl of 20 mM EDTA in simple PBS is added into each top well, and incubated for 20 minutes at 4° C. The filter is carefully flushed with media using a gentle flow, and removed. […] The media is carefully aspirated from each well, and the converted dye is solubilized by 20 μl of DMSO. Absorbance of converted dye is measured at a wavelength of 595 nm using an ELISA plate reader. The number of migrated cells in each well is then determined by interpolation of the standard curve (see also Imai et al., J. Biol. Chem., 272, 15036 (1997)). […] The framed filter was aligned with the holes in the corner of the filter frame and placed over the wells. Five×10^4 THP-1 cells in 25 μl of RPMI-1640 culture media were added to the upper compartment. Peptides were dissolved in Milli Q water and then serially diluted in culture medium. In most cases, the serially diluted peptides were added to the upper compartment of the chemotaxis chamber. […] After incubation, the cells were gently removed from the top of the filter with a pipette, 20 μl of 20 mM EDTA in PBS was added into each top well, and the mixture was incubated for 20 minutes at 4° C. The filter was then carefully flushed with media using a gentle flow, and removed. […] The media was carefully aspirated from each well, and the converted dye was solubilized by 20 μl of DMSO. Absorbance of converted dye was measured at a wavelength of 595 nm using an ELISA plate reader. […] Representative chemokines included a beta-chemokine (“CC”), MIP-1α, and two alpha-chemokines (“CXC”), IL-8 and SDF-1α. […]

[3] = system: TGFβ1 induced THP-1 migration; assay: Trans-well THP-1 migration assay, TGFβ1 as non-chemokine control chemoattractant; type: cell-based, human; details: for Extent of inhibition of THP-1 migration at 100 μM, TGFβ1: Table 4(b), 100 μM peptide, n.s. = no statistically significant inhibition; for inhibition of TGF-beta induced THP-1 migration: even at 100 μM
Experimental: Any method suitable for counting cells can be used, for example, counting with a hemocytometer, incubation of the cells with MTT (see above), or FACS analysis. A negative control assay is also performed, using TGF-β or another non-chemokine chemoattractant (e.g., IL1β or TNFα). To assess whether the agent is cytotoxic, the same concentrations of agent are incubated with THP-1 cells. Agents which 1) are not cytotoxic at levels which inhibit migration, 2) are ineffective at inhibiting the negative control-induced migration, and 3) reduce or inhibit chemokine-induced THP-1 migration, are agents which fall within the scope of the invention.
For this assay, THP-1 cells were maintained at a density of 4×10^5 cells per ml in RPMI-1640 supplemented with 10% fetal calf serum+20 μM 2-mercaptoethanol. Chemotaxis was induced in a 96-well disposable chemotaxis chamber fitted with a […] polycarbonate filter (PVP free, ChemoTX, Neuroprobe Inc., Cabin John). Twenty-nine μl of chemoattractant (recombinant human chemokine; 50 ng/ml, i.e., 5.9 nM) or control (100 ng/ml TGFβ) was added to the lower compartment of each well. The framed filter was aligned with the holes in the corner of the filter frame and placed over the wells. Five×10^4 THP-1 cells in 25 μl of RPMI-1640 culture media were added to the upper compartment. Peptides were dissolved in Milli Q water and then serially diluted in culture medium. In most cases, the serially diluted peptides were added to the upper compartment of the chemotaxis chamber. The chamber was incubated at 37° C. in a humidified atmosphere of 5% CO2 for 4 hours.
After incubation, the cells were gently removed from the top of the filter with a pipette, 20 μl of 20 mM EDTA in PBS was added into each top well, and the mixture was incubated for 20 minutes at 4° C. The filter was then carefully flushed with media using a gentle flow, and removed. A standard curve was prepared to accurately quantify the number of THP-1 cells that had migrated. The curve was based on a two-fold dilution series of THP-1 cells (top standard 100,000 cells in 29 μl). Cells which had migrated, and in separate wells, the cells in the standards, were stained with 3 μl of MTT stock solution which was added directly into each well (5 mg/ml in RPMI 1640 without phenol red, Sigma Chemical Co.) and incubated at 37° C. for 4 hours. The media was carefully aspirated from each well, and the converted dye was solubilized by 20 μl of DMSO. Absorbance of converted dye was measured at a wavelength of 595 nm using an ELISA plate reader. The number of cells that had migrated in each well was determined by interpolation of the standard curve.
To investigate the receptor specificity of peptide 3 inhibition, the ED50 was determined for peptide 3(1-12)[MCP-1] […]

[4] = system: THP-1 cells; assay: THP-1 migration assay for agonist activity (peptide in place of chemokine); type: cell-based, human

Compound | association constant (estimated ka) for DARC [1] | inhibition of THP-1 cell migration induced by MCP-1, MIP1α, IL-8 and SDF1α, in words [2] | Extent of inhibition of THP-1 migration at 100 μM, TGFβ1 [3] | inhibition of TGF-beta induced THP-1 migration [3] | agonist effect in the absence of MCP-1 [4] | maximal migration relative to that induced by MCP-1 ([4]; at 100 μM)
CCC(C)C1NC(=O)[C@@H](CCC(N)=O)NC(=O)[C@H](N)CSSC[C@H](C(=O)O)NC(=O)[C@@H](CC(C)C)NC(=O)[C@@H](CC(=O)O)NC(=O)[C@H]2CCCN2C(=O)[C@@H](CCCCN)NC(=O)[C@@H](CCC(N)=O)NC(=O)[C@@H](CCCCN)NC(=O)[C@@H](Cc2c[nH]c3ccccc23)NC1=O (stereo partly drawn) [CRD-Cys13Leu4ile11peptide 3] (H-[dC][dQ][ξI][dW][dK][dQ][dK][dP][dD][dL][dC]-OH; disulfide 1-11; N-terminus and C-terminus assumed) | 90 µM | inhibited |  |  |  | 
SYRRITSSKCPKEAV [Peptide 2] |  |  | n.s. | did not significantly inhibit | stimulated chemotaxis | about 10%
CC[C@H](C)[C@H](NC(=O)[C@H](C)NC(=O)[C@H](CC(=O)O)NC(=O)[C@@H]1CCCN1C(=O)[C@H](CCC(N)=O)NC(=O)[C@H](C)N)C(=O)N[C@@H](CC(N)=O)C(=O)N[C@@H](C)C(=O)N1CCC[C@H]1C(=O)N[C@H](C(=O)N[C@H](C(=O)N[C@@H](CS)C(=O)N[C@@H](CS)C(=O)O)[C@@H](C)O)C(C)C [Peptide 1] (H-AQPDAINAPVTCC-OH) |  |  | n.s. | did not significantly inhibit |  | 
